Changes are numbered by the printed parent chain. A weaker result is weaker than the reference pair of the same experiment. Protein sequences can lack the tags named with them. For part of these data: For at least one entry, the source does not settle the construct or the ends of the probe. For part of these data: At least one verdict was read from the data and is not stated in words by the source.
Tests used:
Assay in all cases: fluorescence polarization
[1] = target: T1, His-KlRad5 I322A (Kluyveromyces lactis) (UniProt Q6CJM4); conditions: FP: 20 mM Tris pH 7.5, 50 mM (dsDNA, KlHIRAN) or 70 mM (ssDNA) NaCl, 2 mM MgCl2, 1 nM DNA, room temp, recombinant protein, residues 163-1114, protein details: N-terminal His6, label: 5'-FAM
T1 sequence (looked up): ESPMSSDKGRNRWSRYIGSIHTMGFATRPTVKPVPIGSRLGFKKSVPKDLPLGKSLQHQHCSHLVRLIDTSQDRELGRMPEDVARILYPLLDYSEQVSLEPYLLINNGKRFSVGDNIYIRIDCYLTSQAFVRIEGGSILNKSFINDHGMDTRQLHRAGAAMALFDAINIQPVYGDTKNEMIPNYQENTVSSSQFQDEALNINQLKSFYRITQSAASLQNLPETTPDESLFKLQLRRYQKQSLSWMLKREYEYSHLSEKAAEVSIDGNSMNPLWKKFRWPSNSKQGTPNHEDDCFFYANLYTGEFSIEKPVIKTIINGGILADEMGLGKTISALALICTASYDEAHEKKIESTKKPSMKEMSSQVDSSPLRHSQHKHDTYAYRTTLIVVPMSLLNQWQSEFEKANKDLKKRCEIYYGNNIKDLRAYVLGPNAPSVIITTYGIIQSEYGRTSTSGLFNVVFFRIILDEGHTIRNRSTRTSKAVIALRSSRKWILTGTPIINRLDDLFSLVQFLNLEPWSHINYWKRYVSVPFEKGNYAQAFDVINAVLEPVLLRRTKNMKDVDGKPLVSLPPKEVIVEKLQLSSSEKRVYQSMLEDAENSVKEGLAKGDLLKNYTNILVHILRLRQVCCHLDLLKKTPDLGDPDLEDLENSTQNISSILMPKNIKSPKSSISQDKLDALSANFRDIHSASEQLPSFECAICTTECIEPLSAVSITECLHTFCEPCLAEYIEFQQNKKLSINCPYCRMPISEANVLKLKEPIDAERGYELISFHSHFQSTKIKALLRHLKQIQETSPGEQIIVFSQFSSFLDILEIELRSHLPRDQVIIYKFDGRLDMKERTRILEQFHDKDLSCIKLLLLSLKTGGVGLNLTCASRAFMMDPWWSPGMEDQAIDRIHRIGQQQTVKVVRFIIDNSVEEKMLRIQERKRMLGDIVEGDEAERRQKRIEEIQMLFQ

[2] = target: T2, His-KlRad5 M323A (Kluyveromyces lactis) (UniProt Q6CJM4); conditions: FP: 20 mM Tris pH 7.5, 50 mM (dsDNA, KlHIRAN) or 70 mM (ssDNA) NaCl, 2 mM MgCl2, 1 nM DNA, room temp, recombinant protein, residues 163-1114, protein details: N-terminal His6, label: 5'-FAM
T2 sequence (looked up): T1 sequence (looked up) with A160I, M161A

[3] = target: T3, KlRad5 3RE R190E,R228E,R240E (Kluyveromyces lactis) (UniProt Q6CJM4); conditions: strongly inhibited, FP: 20 mM Tris pH 7.5, 50 mM (dsDNA, KlHIRAN) or 70 mM (ssDNA) NaCl, 2 mM MgCl2, 1 nM DNA, room temp, recombinant protein, residues 163-1114, label: 5'-FAM
T3 sequence (looked up): T1 sequence (looked up) with R28E, R66E, R78E, A160I

Measured: binding result

ACCAGTGCCAGTGAT (double strand) [D2a/D2b dsDNA]
binds more weakly: [1] | [2] | [3]; 50 mM NaCl

TTTTTTTCGTCTTCGGCAATTTTTT [S1 ssDNA, 5'-FAM]
binds more weakly: [1]; single-stranded DNA | [2]; single-stranded DNA | [3]; 70 mM NaCl, single-stranded DNA
